# In the supplement of paper PMC7877785:
# ± gives the uncertainty stated by the source. Many of these values have a large error.
# Assay: self-splicing fitness, log relative to wild type (ln ratio); higher = more splicing; Tetrahymena group I intron in knt gene, E. coli kanamycin selection, DiMSum; sequences stand for … in CUCUCU…GGAGGGAAAAGUUAUCAGGCAUGCACCUGGUAGCUAGUCUUUAAACCAAUAGAUUGCAUCGGUUUAAAAGGCAAGACCGUCAAAUUGCGGGAAAGGGGUCAACAGCCGUUCAGUACCAAGUCUCAGGGGAAACUUUGAGAUGGCCUUGCAAAGGGUAUGGUAAUAAGCUGACGGACAUGGUCCUAACCACGCAGCCAAGUCCUAAGUCAACAGAUCUUCUGUUGAUAUGGAUGCAGUUCACAGACUAAAUGUCGGUCGGGGAAGAUGUAUUCUUCUCAUAAGAUAUAGUCGGACCUCUCCUUAAUGGGAGCUAGCGGAUGAAGUGAUGCAACACUGGAGCCGCUGGGAACUAAUUUGUAUGCGAAAGUAUAUUGAUUAGUUUUGGAGUACUCGUGGUCG
# Summary of the method: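 Six replicate transformations of E. coli BL21(DE3) with a pET-22b(+) library were grown overnight at 37°C or 30°C. The library randomised all eight P1ex-region intron nucleotides, the intron lying in the knt kanamycin-resistance gene, and plates were LB agar with or without 25 μg/mL kanamycin plus 100 μg/mL carbenicillin, 50 μM IPTG and 0.2% rhamnose. Pooled colonies were amplicon-sequenced on an Illumina HiSeq 2500, and fitness is the DiMSum error-weighted combination of wild-type-normalised replicate fold changes, kanamycin versus none.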
Sequence,self-splicing fitness (ln) (30 °C),self-splicing fitness (ln) (37 °C)
CUCAAGCAAUAUUACGUCCU,-4 ± 0.27,-2.79 ± 0.19
UAACAGCAAUAUUACGAUCC,-3.13 ± 0.53,–
AGGAAGCAAUAUUACGUCAG,-2.97 ± 0.25,-2.41 ± 0.33
GAAGAGCAAUAUUACGCCAC,-3.28 ± 0.41,-2.48 ± 0.41
UAAAAGCAAUAUUACGCCUC,–,-2.32 ± 0.64
CUUAAGCAAUAUUACGACUC,–,-1.9 ± 0.68
UCAGAGCAAUAUUACGACGC,-3.7 ± 0.73,–
ACUGAGCAAUAUUACGGAGA,-3.46 ± 0.21,-3.08 ± 0.27
GUAUAGCAAUAUUACGCUAC,-1.24 ± 0.69,-1.87 ± 0.6
UUCUAGCAAUAUUACGUGAC,-3.69 ± 0.31,-1.61 ± 0.24
AUCCAGCAAUAUUACGGACC,-1.71 ± 0.13,0.282 ± 0.13
CUUUAGCAAUAUUACGCUGA,–,-2.7 ± 0.55
UCUGAGCAAUAUUACGCGCG,-3.51 ± 0.77,–
CGGUAGCAAUAUUACGCGCC,-2.13 ± 0.72,-2.76 ± 0.75
UUGGAGCAAUAUUACGUGGG,–,-2.48 ± 0.62
CGGUAGCAAUAUUACGAGGC,-3.13 ± 0.74,–
AUUUAGCAAUAUUACGAUAG,-2.65 ± 0.76,-2.42 ± 0.55
UGGAAGCAAUAUUACGGAGC,-2.42 ± 0.64,–
CCUGAGCAAUAUUACGGCAG,-2.92 ± 0.34,-0.802 ± 0.17
CUGGAGCAAUAUUACGACCC,–,-0.693 ± 1
AGAGAGCAAUAUUACGACCA,-1.27 ± 1,–

# Full records, quoted from the list. Values in the order: self-splicing fitness (ln) (30 °C) | self-splicing fitness (ln) (37 °C)
# AGGAAGCAAUAUUACGUCAG in the list: -2.97 ± 0.25 | -2.41 ± 0.33
# CGGUAGCAAUAUUACGAGGC in the list: -3.13 ± 0.74 | –
# GUAUAGCAAUAUUACGCUAC in the list: -1.24 ± 0.69 | -1.87 ± 0.6
# AUUUAGCAAUAUUACGAUAG in the list: -2.65 ± 0.76 | -2.42 ± 0.55

# (next part)

Sequence,self-splicing fitness (ln) (30 °C),self-splicing fitness (ln) (37 °C)
GGAGAGCAAUAUUACGCUGU,-3.8 ± 0.52,-1.88 ± 0.6
UUUUAGCAAUAUUACGUGGC,–,-3.17 ± 1
GGACAGCAAUAUUACGGCCC,–,-0.0592 ± 0.61
CUUGAGCAAUAUUACGAUUU,-5.05 ± 0.58,–
GUCUAGCAAUAUUACGCGCU,-1.29 ± 0.19,-0.353 ± 0.15
AAUGAGCAAUAUUACGAAAG,-4.04 ± 0.52,–
GGAAAGCAAUAUUACGGGGC,-3.54 ± 0.28,-0.864 ± 0.21
ACGUAGCAAUAUUACGUGGA,-3.46 ± 0.32,-2.2 ± 0.23
GGGGAGCAAUAUUACGCCGA,–,-1.36 ± 0.84
CCCGAGCAAUAUUACGACGC,–,-3.02 ± 0.61
UUCGAGCAAUAUUACGCGGC,-3.76 ± 0.73,–
GGGUAGCAAUAUUACGCAUA,0.317 ± 0.56,–
CAUAAGCAAUAUUACGCCCC,-2.13 ± 0.56,-1.62 ± 0.67
CCUGAGCAAUAUUACGUCUC,-4.58 ± 0.72,–
CCUUAGCAAUAUUACGUACC,–,-2.08 ± 1.1
UAGUAGCAAUAUUACGUCAG,-3.46 ± 0.74,–
UAGUAGCAAUAUUACGGAAU,-4.07 ± 0.61,–
CUCUAGCAAUAUUACGACUA,-2.83 ± 0.57,–
AUGUAGCAAUAUUACGAUUG,-1.21 ± 0.15,-3.05 ± 0.38
ACACAGCAAUAUUACGGGCA,-1.48 ± 0.078,-0.0778 ± 0.091
UUUUAGCAAUAUUACGAGGC,-1.43 ± 0.56,–
